# Laboratory results taken from patent publication US6579880B2, “Isoxazoles and oxadiazoles as anti-inflammatory inhibitors of IL-8” (Ortho-McNeil Pharmaceutical, Inc., priority 2000, dated 2003).
# At least one compound was matched to its structure with a doubt left.
# Tested on: IL-8 receptor (purified human neutrophils)
# Assay: radio labeled IL-8 receptor binding assay in purified human neutrophils using I125-IL-8 as ligand
# Settings: Table 1; inhibition of I125-IL-8 (0.125 nM) binding to human neutrophils, 37° C. 60 minutes
# Procedure: Neutrophils are purified from fresh human blood by dextran sedimentation in an equal volume of 3% dextran in saline for 30 minutes. After sedimentation, the blood is centrifuged for 10 minutes at 1000 rpm at 4° C. and the supernate is aspirated and discarded. […] Ten mls ficoll is underlaid of the blood and the sample is centrifuged for 40 minutes at 1400 rpm at 25° C. After centrifugation, the supernate is removed and the cells re-suspended for cell counting. Cell volume is adjusted to 8×10^5 cells/ml in binding buffer without BSA.
# The plates are then incubated at 37° C. for 60 minutes and the supernate is aspirated to within 2 mm of the bottom of the well. The plates are then sealed and counted for 1 minute in a Packard TopCount.
# Drug treated wells are compared to vehicle treated wells for inhibition of binding as determined by a decrease in dpm as compared to the vehicle wells.
# % Inhibition is calculated as follows: [formula]
# IC50 is calculated using K-Graph.
row,SMILES,IC50 [µM]
1,COc1ccc(-c2cc(-c3ccc(OCCCN4CCN(C)CC4)cc3)on2)cc1 [Compound 3],6.9
2,CN1CCN(CCCOc2ccc(-c3cc(-c4ccc(C(F)(F)F)cc4)no3)cc2)CC1 [Compound 5],6
3,CN1CCN(CCCOc2ccc(-c3cc(-c4ccc5c(c4)OCO5)no3)cc2)CC1 [Compound 6],4.7
4,OC1CCN(CCCOc2ccc(-c3nc(-c4ccc(Cl)cc4)no3)cc2)CC1 [Compound 17],13
5,COc1cc(-c2nc(-c3ccc(Cl)cc3)no2)ccc1OCCCN1CCN(C)CC1 [Compound 18],7.53
